This note sets out measurements from PubChem BioAssay AID493014 (National Center for Advancing Translational Sciences (NCATS), 2011).

Molecules are shown by their SMILES. This is one part of the list. Further columns of the screen follow, without active or inactive calls. Compounds called inactive in the main read-out are mostly missing here. Words in brackets tell the shape of the fitted curve; partial curves, single points and poor fits give uncertain potencies.

This experiment is described as follows: qHTS Assay to Find Inhibitors of Chronic Active B-Cell Receptor Signaling. Conditions: ABC-DLBCL IkBa-CBG/CBR reporter, luminescence ratio (green luciferase fused to IkBa over red control in TMD8 lymphoma cells), 4 h. The procedure, abridged:
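Compounds up to 46 uM were incubated four hours with TMD8 cells whose green CBG68 luciferase is fused to IkappaBalpha; red CBR luminescence normalised the signal, and concentration-effect curves were fitted to fusion, red and ratio data.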

The mark [1] stands for this setting: measured here: CBR red luminescence, cell number.
Where [2] appears, read: measured here: IkBa-CBG green luminescence.

As usually defined, the AC50 is the concentration giving half of the maximal activity seen. With `COc1ccc(-c2nc(CN3CCN(c4ncnc5ccccc45)CC3)c(C)o2)c(OC)c1`, under setting [1], the AC50 is 35.5 µM [falling, single point].

`NS(=O)(=O)c1cccc(NC(=O)COC(=O)COc2ccc3ccccc3c2)c1`: the AC50 under setting [1] was 0.112 µM [falling, full curve, poor fit]. Still for that read-out and setting: the same measure for `O=C(Nc1ccccc1Cl)c1cc2ccccc2o/c1=N\O`: 3.98 µM [falling, full curve].

As to `O=C(NCCCN1CCOCC1)c1ccc2c(c1)N(Cc1cccc(Cl)c1)C(=O)c1ccccc1S2`, the AC50 under setting [1] is 35.5 µM [falling, single point].

On to `O=C(/C=C/c1cccs1)Nc1ccncc1`, for which the AC50 under setting [1] was 20.6 µM [falling, partial curve]. For the molecule `COc1ccc([C@H]2CC(=O)C=C(c3ccc4[nH]ccc4c3)C2)cc1OC`, the AC50 under setting [1] was 23.1 µM [falling, single point]. With `O=c1c2c(nc3c(-c4ccccc4)c[nH]n13)CCCC2`, the AC50 under setting [1] is 5.8 µM [falling, full curve, poor fit].

As for `CCC(=O)N1CCN(c2nc(-c3ccccc3)c3c(c2C#N)CCCC3)CC1`, under setting [1], the concentration at half-maximal activity (AC50) was 0.164 µM [falling, full curve, poor fit]. The same measure, in the same setting: the same measure for `COc1ccc(Cl)cc1C(=O)NNC(=O)C1COc2ccccc2O1` (configuration not stated): 3.55 µM [rising, full curve].

In the case of `O=C(Nc1ccc(F)c(F)c1)c1ccco1`, under setting [1], the AC50 is 35.5 µM [falling, partial curve, poor fit]. As to `O=C(NCC(c1ccco1)N1CCCC1)c1ccccc1Sc1ccc(C(F)(F)F)cc1[N+](=O)[O-]` (configuration not stated), the AC50 under setting [1] is 16.4 µM [falling, single point]. On the same count and under the same terms, the same measure for `CC(=O)c1ccc(S(=O)(=O)Nc2ccc(-c3ccc4nnc(C)n4n3)cc2)cc1`: 4.47 µM [rising, full curve]; for `CCCCNS(=O)(=O)c1ccc(NC(=O)C2c3ccccc3Oc3ccccc32)cc1`: 29.1 µM [rising, single point].

Take `COc1ccc2[nH]c(C(=O)O)c(CCNC(C)=O)c2c1`: the AC50 under setting [1] was 20 µM [falling, single point]. Still for that read-out and setting: next, `Oc1cccc(C=Nc2cccc3ccccc23)c1O`: 11.2 µM [rising, partial curve]; `O=C(CCCc1nc2ccccc2s1)NNC(=O)CCN1CCN(Cc2ccccc2)CC1`: 0.794 µM [rising, full curve, poor fit]. Same read-out and setting: next, `Cc1ccc(Nc2c(-c3ccccn3)nc3cc(C)ccn23)cc1`: 11.2 µM [falling, single point]; `COc1ccc(CCNC(=O)CSc2cn(Cc3cccc(C)c3)c3ccccc23)cc1OC`: 32.6 µM [falling, single point]. On the same count and under the same terms, next, `COC(=O)COc1ccc(S(=O)(=O)Nc2cc([N+](=O)[O-])ccc2C)cc1`: 35.5 µM [falling, single point]; `CC(=O)Nc1ccc(S(=O)(=O)N[C@@H](C)C(=O)OCC(=O)NC2CCCC2)cc1`: 3.66 µM [rising, partial curve, poor fit]. Turning to `CCC1CCCCN1C(=O)CN1C(=O)c2ccccc2S1(=O)=O` (configuration not stated), under setting [1], the AC50 was 11.6 µM [rising, partial curve].

With `CCOC(=O)c1ccc(NS(=O)(=O)N2CCCCCC2)cc1`, the AC50 under setting [1] is 7.31 µM [falling, single point].

Take `O=C(C1COc2ccccc2O1)N1CCN(c2ccccc2O)CC1` (configuration not stated): under setting [1], the AC50 was 32.6 µM [rising, single point]. Turning to `CCn1c(=O)c(C(=O)NCc2ccc(OC)cc2)c(O)c2ccccc21`, under setting [1], the AC50 was 29.1 µM [rising, single point]. Same read-out and setting: next, `CCC(CCC(=O)Nc1ccn(-c2ccccc2)n1)C(=O)O` (configuration not stated): 29.1 µM [falling, partial curve, poor fit]. Still for that read-out and setting: next, `CN(C)C(=S)SCC(=O)Nc1cccc(C(F)(F)F)c1`: 3.66 µM [rising, full curve, poor fit]; `CCOC(=O)/C(=C/c1ccc(OC(=O)c2ccncc2)cc1)C(C)=O`: 7.08 µM [falling, partial curve]; `Cn1nnnc1SCC(=O)Nc1nc2ccccc2s1`: 22.4 µM [falling, single point].

Turning to `Cc1cc(-c2[nH]nc3c2C(c2ccsc2)C(C#N)=C(N)O3)c(C)s1` (configuration not stated), under setting [1], the AC50 is 7.31 µM [falling, partial curve, poor fit]. The same measure, in the same setting: the same measure for `COc1ccc(NC(=S)NC(NC(=O)c2ccc(Cl)cc2Cl)C(Cl)(Cl)Cl)c([N+](=O)[O-])c1` (configuration not stated): 29.1 µM [falling, single point]; for `O=C(CCC1COc2ccccc2O1)Nc1ccccn1` (configuration not stated): 0.461 µM [falling, partial curve, poor fit]; for `CC(=O)COC(=O)c1ccc2noc(-c3ccccc3)c2c1`: 10 µM [falling, partial curve, poor fit]. As for `CCCCCOC(=O)NC1CCS(=O)(=O)C1` (configuration not stated), under setting [1], the AC50 was 4.47 µM [falling, single point].

Turning to `CC(C)(C)C(=O)Cn1ncc(N2CCCC2)c(Br)c1=O`, the AC50 under setting [1] was 35.5 µM [rising, single point].

Consider `CCOC(=O)c1c(CN2CCOCC2)n(C)c2cc(Br)c(O)c(CN(C)C)c12`, for which the AC50 under setting [1] was 29.1 µM [rising, single point]. On the same count and under the same terms, next, `O=C(Nc1ccc2nc(-c3ccc(Br)o3)[nH]c2c1)c1cccs1`: 2 µM [falling, full curve]; `CCOc1ccc(C2N(c3ccc(F)cc3)C(=O)C3CCCN32)cc1OC` (configuration not stated): 0.0082 µM [rising, full curve, poor fit]; `Nc1n[nH]c(-c2ccc([N+](=O)[O-])cc2[N+](=O)[O-])n1`: 1.26 µM [rising, partial curve]. In the case of `CCCCCCn1c(N2CCCC2)nc2c1c(=O)n(C)c(=O)n2C`, under setting [1], the AC50 is 35.5 µM [falling, single point]. As to `COc1cc([N+](=O)[O-])cc(/C=N\NC(=O)C2COc3ccccc3O2)c1O` (configuration not stated), under setting [1], the AC50 was 12.6 µM [falling, partial curve, poor fit]. Same read-out and setting: the same measure for `Cc1nn(-c2ccccc2)c(C)c1-c1cc(C(=O)N/N=C/c2ccc(O)cc2)[nH]n1`: 35.5 µM [falling, single point]; for `O=C(Nc1ccccn1)c1ccc2c(c1)OCO2`: 10 µM [falling, partial curve].

Regarding `N#Cc1sc(NCc2ccccn2)nc1Cl`, the AC50 under setting [1] is 12.6 µM [rising, single point]. On to `COc1ccc2c(c1)O[C@H](c1ccc3c(c1)OCO3)[C@@H](OC(=O)Nc1cc(OC)c(OC)c(OC)c1)C2=O`, for which the AC50 is, setting by setting: under setting [1], 13 µM [rising, partial curve]; under setting [2], 18.4 µM [falling, single point]. As to `O=c1c2ccccc2c(C=Nc2cccc(O)c2)c(O)n1-c1ccc2c(c1)OCO2`, the AC50 under setting [1] was 1.41 µM [rising, full curve, poor fit].

`Cc1ccccc1C(=O)Nc1ccc(C(=O)N/N=C/c2ccncc2)cc1`: the AC50 by setting is: under setting [1], 35.5 µM [falling, single point]; under setting [2], 15.8 µM [rising, partial curve, poor fit].

For `CN(C(=O)CSc1n[nH]c(N)n1)C1CCCCC1`, under setting [1], the AC50 is 9.2 µM [rising, partial curve]. On the same count and under the same terms, the same measure for `O=C1Nc2ccccc2C12OCC1(CO2)COC2(OC1)C(=O)Nc1ccccc12` (configuration not stated): 0.58 µM [rising, full curve, poor fit]; for `Cc1cc(NC(=O)COc2ncnc3sc(C)c(C)c23)no1`: 2.31 µM [falling, partial curve, poor fit]; for `COC(=O)c1cc(Br)cn1S(=O)(=O)c1ccccc1`: 35.5 µM [rising, single point]. Still for that read-out and setting: the same measure for `COc1cc(/C=C2/C(=O)NN(c3ccc(Cl)cc3)C2=O)ccc1OC(=O)c1ccco1`: 29.1 µM [falling, single point]. For the molecule `CC(C)Sc1nsc2nc(=O)c(/C=C3\C=Nc4ccccc43)c(N)n12`, the AC50 under setting [1] was 0.1 µM [rising, full curve, poor fit]. Still for that read-out and setting: next, `CCCc1cc(C(=O)Nc2ccc(C(=O)OC)cc2)cs1`: 1.41 µM [falling, full curve]; `C=CCn1c(SCC(=O)N2CCOCC2)nc2sc3c(c2c1=O)CCCC3`: 29.1 µM [rising, single point]. Consider `COc1cccc(NC(=O)C(=O)NCCCn2ccnc2)c1`, for which the AC50 under setting [1] is 14.1 µM [falling, single point]. Same read-out and setting: the same measure for `Cc1cc(NC(=O)CSc2nnc(-c3ccccc3)n2Cc2ccco2)no1`: 12.6 µM [falling, partial curve]; for `Cc1c(Cl)cnc(NC(=O)COC(=O)c2ccc3ncsc3c2)c1Cl`: 16.4 µM [falling, single point]; for `COc1cccc(CN(C)C(=O)c2cccc(OCc3ccccc3)c2)c1`: 35.5 µM [falling, partial curve, poor fit]. In the case of `CCS(=O)(=O)c1ccc2oc(SCC(=O)Nc3ccc(OC)cc3OC)nc2c1`, under setting [1], the AC50 is 5.01 µM [rising, partial curve]. On to `CC(=O)c1c(NCCc2ccccc2)nc(=S)n(-c2ccccc2)c1C`, for which the AC50 under setting [1] was 31.6 µM [rising, single point]. With `CCOC(NC(=O)c1ccccc1)C(NC(=O)c1ccccc1)OCC` (configuration not stated), the AC50 under setting [1] is 29.1 µM [rising, single point].

In the case of `CC(OC(=O)CNC(=O)c1ccccc1F)C(=O)Nc1nc(-c2ccccc2)cs1` (configuration not stated), under setting [1], the AC50 was 0.146 µM [rising, full curve, poor fit]. On to `NC(=O)NC(=O)COC(=O)c1ccccc1OCc1ccc(F)cc1`, for which, under setting [1], the AC50 was 5.62 µM [rising, partial curve, poor fit]. The same measure, in the same setting: next, `Cc1ccc(/C=N/n2cc(-c3ccccc3)[nH]c2=S)s1`: 31.6 µM [falling, single point]; `Cc1csc(NC(=O)c2ccccc2O)n1`: 8.91 µM [falling, partial curve].
